Measured values taken from PMC9319246.
No constants are given. Whether binding was seen depends on the method and setting. Binding seen in cells or lysates may run through a third protein. A yes stands for co-enrichment or nearness to the bait. Other partners may have been found. Where a sequence is shown, tags or fusion partners need not be part of it.

Chains of the proteins cited; added tags and fusions are not shown.
UniProt Q8IY31: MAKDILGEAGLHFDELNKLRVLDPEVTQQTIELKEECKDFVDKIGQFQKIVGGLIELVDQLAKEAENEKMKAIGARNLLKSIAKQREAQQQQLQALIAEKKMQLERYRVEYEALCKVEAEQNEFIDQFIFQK

T1: Strep/FLAG-tagged IFT88 (UniProt Q13099)
T1 sequence: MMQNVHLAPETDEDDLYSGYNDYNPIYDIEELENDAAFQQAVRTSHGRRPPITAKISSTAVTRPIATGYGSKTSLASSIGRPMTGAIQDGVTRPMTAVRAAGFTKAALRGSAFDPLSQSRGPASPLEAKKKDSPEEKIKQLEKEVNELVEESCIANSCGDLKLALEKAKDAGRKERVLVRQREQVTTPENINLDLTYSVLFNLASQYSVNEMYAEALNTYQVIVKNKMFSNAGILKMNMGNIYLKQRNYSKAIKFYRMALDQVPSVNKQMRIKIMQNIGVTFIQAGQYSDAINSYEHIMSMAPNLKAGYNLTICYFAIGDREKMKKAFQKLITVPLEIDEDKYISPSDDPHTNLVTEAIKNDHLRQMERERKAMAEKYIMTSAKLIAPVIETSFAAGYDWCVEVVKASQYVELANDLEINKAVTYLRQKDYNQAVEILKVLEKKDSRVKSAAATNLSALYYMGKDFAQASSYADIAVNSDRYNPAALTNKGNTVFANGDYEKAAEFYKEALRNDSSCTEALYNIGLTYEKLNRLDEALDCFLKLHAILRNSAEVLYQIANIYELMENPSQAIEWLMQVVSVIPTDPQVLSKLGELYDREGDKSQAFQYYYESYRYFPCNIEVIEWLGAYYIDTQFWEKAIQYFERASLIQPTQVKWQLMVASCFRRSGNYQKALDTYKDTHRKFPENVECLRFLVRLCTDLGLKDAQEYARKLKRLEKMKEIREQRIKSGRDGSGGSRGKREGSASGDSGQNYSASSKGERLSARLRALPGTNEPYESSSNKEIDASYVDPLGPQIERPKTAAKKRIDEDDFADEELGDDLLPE

T2: Strep/FLAG-tagged LCA5 (UniProt Q86VQ0)
T2 sequence: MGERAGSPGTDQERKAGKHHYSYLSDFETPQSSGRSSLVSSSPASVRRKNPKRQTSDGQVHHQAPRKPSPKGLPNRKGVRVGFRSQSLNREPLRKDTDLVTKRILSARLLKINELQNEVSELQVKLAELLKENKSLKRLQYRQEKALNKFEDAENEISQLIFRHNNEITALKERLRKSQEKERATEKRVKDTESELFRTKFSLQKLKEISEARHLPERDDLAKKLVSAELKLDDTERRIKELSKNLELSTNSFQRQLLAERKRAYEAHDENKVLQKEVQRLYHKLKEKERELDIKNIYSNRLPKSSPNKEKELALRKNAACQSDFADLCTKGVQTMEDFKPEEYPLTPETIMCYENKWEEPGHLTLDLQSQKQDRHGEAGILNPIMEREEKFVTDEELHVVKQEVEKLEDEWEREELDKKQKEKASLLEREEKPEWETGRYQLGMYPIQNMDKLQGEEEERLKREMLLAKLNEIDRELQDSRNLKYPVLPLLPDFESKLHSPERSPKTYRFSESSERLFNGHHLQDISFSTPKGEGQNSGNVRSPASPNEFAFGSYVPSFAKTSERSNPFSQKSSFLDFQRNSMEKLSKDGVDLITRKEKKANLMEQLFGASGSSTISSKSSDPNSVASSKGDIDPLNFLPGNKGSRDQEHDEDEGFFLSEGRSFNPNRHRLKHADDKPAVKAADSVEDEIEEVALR

B1: TTC30B (endogenous, untagged) (protein, UniProt Q8N4P2 1-665)
chain: MAGLSGAQIPDGEFTAVVYRLIRNARYAEAVQLLGGELQRSPRSRAGLSLLGYCYYRLQEFALAAECYEQLGQLHPELEQYRLYQAQALYKACLYAEATRVAFLLLDNPAYHSRVLRLQAAIKYSEGDLPGSRSLVEQLPSREGGEESGGENETDGQINLGCLLYKEGQYEAACSKFFAALQASGYQPDLSYNLALAYYSSRQYASALKHIAEIIERGIRQHPELGVGMTTEGIDVRSVGNTLVLHQTALVEAFNLKAAIEYQLRNYEAAQEALTDMPPRAEEELDPVTLHNQALMNMDARPTEGFEKLQFLLQQNPFPPETFGNLLLLYCKYEYFDLAADVLAENAHLIYKFLTPYLYDFLDAVITCQTAPEEAFIKLDGLAGMLTEVLRKLTIQVQEARHNRDDEAIKKAVNEYDETMEKYIPVLMAQAKIYWNLENYPMVEKIFRKSVEFCNDHDVWKLNVAHVLFMQENKYKEAIGFYEPIVKKHYDNILNVSAIVLANLCVSYIMTSQNEEAEELMRKIEKEEEQLSYDDPDKKMYHLCIVNLVIGTLYCAKGNYDFGISRVIKSLEPYNKKLGTDTWYYAKRCFLSLLENMSKHTIMLRDSVIQECVQFLEHCELHGRNIPAVIEQPLEEERMHVGKNTVTYESRQLKALIYEIIGWNI
B2: IFT74 (protein, UniProt Q96LB3 1-600)
chain: MASNHKSSAARPVSRGGVGLTGRPPSGIRPLSGNIRVATAMPPGTARPGSRGCPIGTGGVLSSQIKVAHRPVTQQGLTGMKTGTKGPQRQILDKSYYLGLLRSKISELTTEVNKLQKGIEMYNQENSVYLSYEKRAETLAVEIKELQGQLADYNMLVDKLNTNTEMEEVMNDYNMLKAQNDRETQSLDVIFTERQAKEKQIRSVEEEIEQEKQATDDIIKNMSFENQVKYLEMKTTNEKLLQELDTLQQQLDSQNMKKESLEAEIAHSQVKQEAVLLHEKLYELESHRDQMIAEDKSIGSPMEEREKLLKQIKDDNQEIASMERQLTDTKEKINQFIEEIRQLDMDLEEHQGEMNQKYKELKKREEHMDTFIETFEETKNQELKRKAQIEANIVALLEHCSRNINRIEQISSITNQELKMMQDDLNFKSTEVQKSQSTAQNLTSDIQRLQLDLQKMELLESKMTEEQHSLKSKIKQMTTDLEIYNDLPALKSSGEEKIKKLHQERMILSTHRNAFKKIMEKQNIEYEALKTQLQENETHSQLTNLERKWQHLEQNNFAMKEFIATKSQESDYQPIKKNVTKQIAEYNKTIVDALHSTSGN
B3: IFT88 (endogenous) (protein, UniProt Q13099 1-824)
chain: T1 sequence
B4: IFT27 (protein, UniProt Q9BW83 1-186)
chain: MVKLAAKCILAGDPAVGKTALAQIFRSDGAHFQKSYTLTTGMDLVVKTVPVPDTGDSVELFIFDSAGKELFSEMLDKLWESPNVLCLVYDVTNEESFNNCSKWLEKARSQAPGISLPGVLVGNKTDLAGRRAVDSAEARAWALGQGLECFETSVKEMENFEAPFHCLAKQFHQLYREKVEVFRALA
B5: IFT22 (protein, UniProt Q9H7X7 1-185)
chain: MLKAKILFVGPCESGKTVLANFLTESSDITEYSPTQGVRILEFENPHVTSNNKGTGCEFELWDCGGDAKFESCWPALMKDAHGVVIVFNADIPSHRKEMEMWYSCFVQQPSLQDTQCMLIAHHKPGSGDDKGSLSLSPPLNKLKLVHSNLEDDPEEIRMEFIKYLKSIINSMSESRDREEMSIMT
B6: IFT57 (protein, UniProt Q9NWB7 1-429)
chain: MTAALAVVTTSGLEDGVPRSRGEGTGEVVLERGPGAAYHMFVVMEDLVEKLKLLRYEEEFLRKSNLKAPSRHYFALPTNPGEQFYMFCTLAAWLINKAGRPFEQPQEYDDPNATISNILSELRSFGRTADFPPSKLKSGYGEHVCYVLDCFAEEALKYIGFTWKRPIYPVEELEEESVAEDDAELTLNKVDEEFVEEETDNEENFIDLNVLKAQTYHLDMNETAKQEDILESTTDAAEWSLEVERVLPQLKVTIRTDNKDWRIHVDQMHQHRSGIESALKETKGFLDKLHNEITRTLEKISSREKYINNQLENLVQEYRAAQAQLSEAKERYQQGNGGVTERTRLLSEVMEELEKVKQEMEEKGSSMTDGAPLVKIKQSLTKLKQETVEMDIRIGIVEHTLLQSKLKEKSNMTRNMHATVIPEPATGFY
B7: LCA5 (endogenous) (protein, UniProt Q86VQ0 1-697)
chain: T2 sequence

What was measured:
Strep/FLAG-tagged IFT88 = biological target: T1, Strep/FLAG-tagged IFT88; test: affinity purification with mass spectrometry; Strep-Tactin Superflow on lysates of HEK293T Cas9 control, TTC30B KO and TTC30A/B KO cells transfected with Strep/FLAG-tagged LCA5 or IFT88 (Strep/FLAG-RAF1 as control); Strep elution buffer; label-free LC-MS/MS; four biological replicates
Strep/FLAG-tagged LCA5 = biological target: T2, Strep/FLAG-tagged LCA5; test: as above

Row | Molecule | binding (Strep/FLAG-tagged IFT88) | binding (Strep/FLAG-tagged LCA5)
1 | IFT20 (from UniProt Q8IY31 1-132) | binds | binds
2 | B1 | binds | binds
3 | B2 |  | binds
4 | B3 |  | binds
5 | B4 |  | binds
6 | B5 | binds | binds
7 | B6 |  | binds
8 | B7 | binds | 
